{"source": "PubChem BioAssay AID504467", "about": "(National Center for Advancing Translational Sciences (NCATS), 2011)", "note": "The campaign covered roughly 330,000 compounds. About 7,700 (2.3%) were called active. The shares of active, inactive and inconclusive entries below differ from those in the screen. Calls come from the whole dose curve; as a rule, active = well fitted inhibition curve with a large enough effect; inconclusive = small, poorly fitted or top-dose-only effect, or effect the other way; inactive = flat fitted curve, though single readings scatter. Where the call is inconclusive, the potency comes from a doubtful curve fit. % is set by controls: 0 for no effect and ±100 for the full control effect; potency is the fitted concentration of half-maximal effect.", "data": [{"experiment": "qHTS screen for small molecules that inhibit ELG1-dependent DNA repair in human embryonic kidney (HEK293T) cells expressing luciferase-tagged ELG1; note: nearly all actives have a fitted effect of over 55% in size", "settings": "HEK293T ELG1-luciferase reporter, luminescence, 16 h, DNA damage induced by 5-fluorouridine; activity change, negative = inhibition: at 46.1 µM (top of the series)", "procedure,_shortened": "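DMSO vehicle served as the neutral condition. Each well held 2,000 cells given 5-fluorouridine plus compound; after 16 hr at 37 °C/5% CO2, ONE-Glo was added and luciferase measured 30 min later.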", "values": [{"smiles": "CCc1nnc(NC(=O)C2CCCN(c3nc4ccccc4s3)C2)s1", "note": "(stereo unspecified)", "Potency": "inconclusive: 29.1 µM [inhibitor, partial curve, poor fit]"}, {"smiles": "CCC(C)c1ccc(NC(=O)C2CCN(c3ncccn3)CC2)cc1", "note": "(stereo unspecified)", "Potency": "inconclusive: 18.4 µM [inhibitor, partial curve, poor fit]"}, {"smiles": "CC(=O)Nc1ccc(NC(=O)C(C)c2cccc(C(=O)c3ccccc3)c2)cc1", "note": "(stereo unspecified)", "activity change, negative = inhibition": "inactive: -24.8%"}, {"smiles": "Cc1ccc(-c2cc(C(=O)Nc3cccc(S(=O)(=O)N(C)C)c3)c3ccccc3n2)o1", "Potency": "inconclusive: 32.6 µM [inhibitor, single point]"}, {"smiles": "CCCN(CCC)CCCNC(=O)c1cn(CC)c2ccc(S(=O)(=O)N3CCOCC3)cc2c1=O", "Potency": "inconclusive: 25.9 µM [activator, single point]"}, {"smiles": "O=C(CSc1nc2ccccc2[nH]1)Nc1cccc(S(=O)(=O)N2CCOCC2)c1", "Potency": "inconclusive: 25.9 µM [inhibitor, partial curve, poor fit]"}, {"smiles": "COc1ccc(S(=O)(=O)N2CCOCC2)cc1NC(=O)CN1CCCc2ccccc21", "Potency": "inconclusive: 29.1 µM [inhibitor, single point]"}, {"smiles": "CC(Oc1cccc2ccccc12)C(=O)N/N=C/c1cccnc1", "note": "(stereo unspecified)", "Potency": "inconclusive: 20.6 µM [activator, partial curve, poor fit]"}, {"smiles": "CCn1c(SCc2nc(-c3ccc(OC)c(OC)c3)no2)nnc1-c1cccs1", "Potency": "inconclusive: 16.4 µM [inhibitor, single point]"}, {"smiles": "CNC(=S)N/N=C/c1ccc(-c2cccc(C(=O)O)c2)o1", "Potency": "inconclusive: 9.2 µM [activator, partial curve]"}, {"smiles": "COC(=O)[C@]1(C)N[C@H](CN(C)S(=O)(=O)c2ccc(OC)cc2)[C@@H]2C(=O)N(C)C(=O)[C@@H]21", "activity change, negative = inhibition": "inactive: 10.8%"}, {"smiles": "COc1ccccc1NS(=O)(=O)c1cc(NC(=O)c2ccccc2F)ccc1N1CCOCC1", "Potency": "inconclusive: 29.1 µM [activator, partial curve, poor fit]"}, {"smiles": "C/C=C/c1ccc(OCCCCOc2ccccc2C(C)=O)c(OC)c1", "Potency": "inconclusive: 10.3 µM [inhibitor, partial curve, poor fit]"}, {"smiles": "Cc1ccc(S(=O)(=O)N2CCCCC2)cc1NC(=O)C1=NN(c2ccccc2)C(=O)CC1", "Potency": "inconclusive: 23.1 µM [inhibitor, single point]"}, {"smiles": "O=C(COc1ccccc1)OCc1cc2ccccc2[nH]c1=O", "Potency": "inconclusive: 20.6 µM [activator, partial curve, poor fit]"}, {"smiles": "CCN(Cc1ccccc1)S(=O)(=O)c1ccc(C(=O)Nc2nnc(-c3ccccc3OC)o2)cc1", "Potency": "inconclusive: 8.2 µM [inhibitor, partial curve]"}, {"smiles": "Cc1ccc(OCC(=O)NCCCNC(=O)c2ccccn2)cc1", "Potency": "inconclusive: 29.1 µM [inhibitor, single point]"}, {"smiles": "CCCCCCNCC(=O)N1CCC(Cc2ccccc2)CC1", "Potency": "inconclusive: 16.4 µM [inhibitor, partial curve, poor fit]"}, {"smiles": "COc1cccc(C(O)c2nc3ccccc3n2C(C)C)c1OC", "note": "(stereo unspecified)", "Potency": "inconclusive: 9.2 µM [inhibitor, partial curve]"}, {"smiles": "C/C=C/C(=O)N1CC2(CC(c3cccc(NC(=O)/C(C)=C/C)c3)=NO2)C[C@H]1C(N)=O", "note": "(stereo partly specified)", "activity change, negative = inhibition": "inactive: 5.65%"}, {"smiles": "COc1ccc(Br)cc1CN(C)C(=O)c1ccccc1OCc1c(C)noc1C", "activity change, negative = inhibition": "inactive: -23.9%"}, {"smiles": "CCC(=O)N/C(=N/c1nc(C)cc(C)n1)Nc1ccccc1", "Potency": "inconclusive: 23.1 µM [inhibitor, single point]"}, {"smiles": "CCn1c(SCC(=O)Nc2ccc(C(C)=O)cc2)nc2nc3c(cc2c1=O)CCCC3", "Potency": "inconclusive: 25.9 µM [inhibitor, partial curve, poor fit]"}, {"smiles": "CCCC(=O)NC(=S)Nc1cccc(NC(=O)c2ccc(Cl)cc2Cl)c1", "Potency": "inconclusive: 29.1 µM [inhibitor, single point]"}, {"smiles": "CCOC(=O)Cc1nnc(NC(=O)c2ccccc2OC)s1", "activity change, negative = inhibition": "inactive: 0%"}, {"smiles": "Cc1ccc(S(=O)(=O)N[C@H](C(=O)OCC(=O)N2N=C(c3ccc(Cl)cc3)CC2c2ccco2)C(C)C)cc1", "note": "(stereo partly specified)", "Potency": "inconclusive: 10.3 µM [inhibitor, partial curve, poor fit]"}, {"smiles": "CCCCNC(=S)Nc1ccccc1Cc1ccccc1", "Potency": "inconclusive: 18.3 µM [inhibitor, single point]"}, {"smiles": "COC(=O)[C@H](Cc1ccc(O)cc1)NC(=O)Cn1ccc(NC(=O)OCc2ccccc2)nc1=O", "Potency": "inconclusive: 25.9 µM [activator, partial curve, poor fit]"}, {"smiles": "c1c2c(cc3sc(N4CCOCC4)nc13)OCO2", "Potency": "inconclusive: 2.59 µM [activator, partial curve]"}, {"smiles": "Cc1ccc(/C=N/NC(=O)c2nnn(-c3nonc3N)c2CN(C)c2ccccc2)s1", "activity change, negative = inhibition": "inactive: 12.5%"}, {"smiles": "COc1ccccc1OCC(=O)NNc1c2ccccc2nc2ccccc12", "Potency": "inconclusive: 14.6 µM [inhibitor, partial curve]"}, {"smiles": "COC(=O)[C@]1(C)N[C@H](CN(C)S(=O)(=O)c2ccc(OC(F)(F)F)cc2)[C@@H]2C(=O)N(Cc3ccccc3)C(=O)[C@@H]21", "activity change, negative = inhibition": "inactive: -0.279%"}, {"smiles": "CCOC(=O)C1=NN(C(=O)c2cccc(Br)c2)C(O)(C(C)(C)C)C1", "note": "(stereo unspecified)", "activity change, negative = inhibition": "inactive: -11.4%"}, {"smiles": "Cn1nc(C(=O)OCC(=O)c2ccc(Cl)cc2)c2ccccc2c1=O", "activity change, negative = inhibition": "inactive: 6.14%"}, {"smiles": "Cc1cccc(NC(=O)c2ccc(C3SCC(=O)N3CCc3ccccc3)cc2)c1", "note": "(stereo unspecified)", "Potency": "active: 25.9 µM"}, {"smiles": "CCNc1nc(NCC)n2c(SC(C(=O)Nc3cc(C)ccc3C)c3ccccc3)nnc2n1", "note": "(stereo unspecified)", "Potency": "inconclusive: 25.9 µM [inhibitor, single point]"}, {"smiles": "O=C(Nc1ccc(Cl)cc1)c1nc[nH]c1C(=O)NCCCNC(=O)c1[nH]cnc1C(=O)Nc1ccc(Cl)cc1", "Potency": "active: 2.59 µM"}, {"smiles": "CC(C)(C)CNc1cc(N2CCOCC2)ccc1[N+](=O)[O-]", "Potency": "inconclusive: 25.9 µM [inhibitor, single point]"}, {"smiles": "CSc1ncc(C(=O)Nc2ccc(C(C)=O)cc2)c(C)n1", "Potency": "inconclusive: 23.1 µM [activator, single point]"}, {"smiles": "CCOc1ccc(S(=O)(=O)NC(C)C)cc1C(N)=O", "activity change, negative = inhibition": "inactive: -14.1%"}, {"smiles": "Cc1ccn2c(=O)c(NC(=O)c3cccc4ccccc34)c(C)nc2c1", "Potency": "active: 5.17 µM"}, {"smiles": "Cc1ccc(-n2nc(C)c(C(=O)Nc3cccc(C(=O)NC4CC4)c3)n2)c(C)c1", "Potency": "inconclusive: 22.4 µM [inhibitor, single point]"}, {"smiles": "CCCc1n(CC(O)COCC2CC=CCC2)c2ccccc2[n+]1C", "note": "(stereo unspecified)", "activity change, negative = inhibition": "inactive: -11.1%"}, {"smiles": "CC[n+]1ccccc1/C=C/c1ccc(N(C)C)cc1", "Potency": "inconclusive: 1.64 µM [inhibitor, partial curve, poor fit]"}, {"smiles": "COc1ccc2[nH]cc(CCNC(=O)c3ccc([N+](=O)[O-])cc3)c2c1", "Potency": "inconclusive: 20.6 µM [inhibitor, single point]"}, {"smiles": "NS(=O)(=O)c1ccc(NC(=O)CSc2nc(Nc3ccccc3)nc(N3CCOCC3)n2)cc1", "Potency": "inconclusive: 14.6 µM [inhibitor, partial curve, poor fit]"}, {"smiles": "CC(=O)c1ccc(NC(=O)c2ccc(N3CCCC3=O)cc2)cc1", "Potency": "inconclusive: 29.1 µM [activator, single point]"}, {"smiles": "Cc1c(C(=O)N2CCN(c3ccc(F)cc3)CC2)sc2ncnc(N3CCN(c4ccccn4)CC3)c12", "Potency": "active: 6.51 µM"}, {"smiles": "COc1cccc(-c2noc(-c3ccc4c(c3)OCO4)n2)c1", "Potency": "inconclusive: 1.83 µM [activator, partial curve]"}, {"smiles": "NC(=O)c1ccsc1NC(=O)COC(=O)Cc1ccsc1", "activity change, negative = inhibition": "inactive: 0.23%"}, {"smiles": "Cc1nn(Cc2ccc(F)cc2)c(C)c1NC(=O)C1c2ccccc2Oc2ccccc21", "Potency": "inconclusive: 29.1 µM [inhibitor, single point]"}, {"smiles": "COc1ccc(NC(=O)Nc2cccc3ccccc23)c(OC)c1", "Potency": "inconclusive: 14.6 µM [inhibitor, partial curve, poor fit]"}, {"smiles": "COc1ccc(C2=NN(S(C)(=O)=O)C(c3cccs3)C2)cc1OC", "note": "(stereo unspecified)", "Potency": "inconclusive: 10.3 µM [activator, partial curve]"}, {"smiles": "O=C(Nc1ccc(F)cc1F)NC1CCN(Cc2c(F)cccc2Cl)CC1", "Potency": "inconclusive: 23.1 µM [inhibitor, partial curve]"}, {"smiles": "Cc1cccc(/C=N/n2c(C)nc3ccccc3c2=O)c1", "Potency": "inconclusive: 8.2 µM [activator, partial curve, poor fit]"}, {"smiles": "CCOc1ccc(-n2c(C)cc(/C=N/Nc3nc(C)cc(=O)[nH]3)c2C)cc1", "Potency": "inconclusive: 7.3 µM [inhibitor, partial curve, poor fit]"}, {"smiles": "O=C(N/N=C/c1ccc(OC(F)F)cc1OC(F)F)NC1CCCCC1", "Potency": "inconclusive: 23.1 µM [inhibitor, single point]"}, {"smiles": "CN(C)CCN(C(=O)c1ccc(C(=O)c2ccccc2)cc1)c1nc2cc3c(cc2s1)OCO3", "activity change, negative = inhibition": "inactive: 4.05%"}, {"smiles": "O=C(C1CC1)N1CCc2sccc2C1c1ccc(Cl)cc1", "note": "(stereo unspecified)", "Potency": "inconclusive: 18.3 µM [inhibitor, single point]"}, {"smiles": "CCOc1ccc(C2=Nn3c(nnc3-c3ccccc3OC)SC2)cc1", "activity change, negative = inhibition": "inactive: -12.8%"}, {"smiles": "Cc1ccc(S(=O)(=O)NCC(=O)NCc2ccncc2)cc1", "activity change, negative = inhibition": "inactive: -8.72%"}, {"smiles": "O=C(CSc1nnc2ccc(-c3ccccn3)nn12)Nc1ccccc1F", "activity change, negative = inhibition": "inactive: 13.4%"}, {"smiles": "Cn1c(=O)c(-c2cc(Br)ccc2N)nc2ccccc21", "Potency": "inconclusive: 8.2 µM [activator, partial curve]"}, {"smiles": "Cc1cc(NC(=O)CSc2nc3ccccc3c(=O)n2Cc2ccccc2)no1", "activity change, negative = inhibition": "inactive: -1.25%"}, {"smiles": "COc1ccccc1N=Nc1nc(-c2ccccc2)c(-c2ccccc2)[nH]1", "Potency": "active: 23.1 µM"}, {"smiles": "O=C(O)/C=C/C(=O)Nc1ccc(Oc2ncnc3cc(Cl)ccc23)nc1", "Potency": "inconclusive: 23.1 µM [activator, single point]"}]}]}
